## Library screening results

Amino acid sequences for entries named in this document (tags omitted).
UniProt E9BF75, entry or part of it: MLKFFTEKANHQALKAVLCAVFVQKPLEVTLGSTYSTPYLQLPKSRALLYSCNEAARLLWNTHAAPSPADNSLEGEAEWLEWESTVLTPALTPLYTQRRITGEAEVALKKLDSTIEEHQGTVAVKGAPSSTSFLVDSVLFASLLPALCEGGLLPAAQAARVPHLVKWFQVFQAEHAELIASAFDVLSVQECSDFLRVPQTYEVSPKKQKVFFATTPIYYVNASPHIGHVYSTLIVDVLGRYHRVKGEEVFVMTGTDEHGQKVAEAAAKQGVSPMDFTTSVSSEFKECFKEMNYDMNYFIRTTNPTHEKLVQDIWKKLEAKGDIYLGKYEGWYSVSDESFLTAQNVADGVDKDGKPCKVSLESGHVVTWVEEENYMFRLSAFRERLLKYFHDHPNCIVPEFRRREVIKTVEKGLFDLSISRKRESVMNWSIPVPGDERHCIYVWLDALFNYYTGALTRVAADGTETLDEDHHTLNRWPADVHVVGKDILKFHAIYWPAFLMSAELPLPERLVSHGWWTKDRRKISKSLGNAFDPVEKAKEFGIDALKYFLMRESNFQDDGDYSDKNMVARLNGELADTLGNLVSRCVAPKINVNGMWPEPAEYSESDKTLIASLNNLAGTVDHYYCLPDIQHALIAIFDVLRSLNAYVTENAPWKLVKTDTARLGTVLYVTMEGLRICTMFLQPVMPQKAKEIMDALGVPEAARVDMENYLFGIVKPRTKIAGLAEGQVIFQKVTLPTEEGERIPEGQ

Measurements from “University of Dundee, Small-Polar-MMV Screening Library” (2021), ChEMBL document CHEMBL3988442.

LdMetRS: 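Methionyl-tRNA synthetase (putative), Leishmania donovani (UniProt E9BF75). Primary screen of methionyl-tRNA synthetase; the read-out is not stated. The test concentration is not given. Values are per cent inhibition. Size under these conditions: about 68,000 compounds, about 24 of them at 50% or above in at least one test.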
Mtb heat-shock: 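Assay on Mycobacterium tuberculosis, filed only as a heat shock assay from Cornell; the read-out is not stated. The concentration is filed as 10 mM, unlikely as a test dose, so the dose is not known. Higher reads as stronger inhibition (inferred: compounds with an IC50 in retests scored well above the rest). About 69,000 compounds were tested under these conditions; 1.4% (about 930) showed 50% or more at least once.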

All values are in %.
The controls that fix the scale are not given in the record; negative values are as filed.
This is an unselected part of the compounds tested.

{"smiles": "O=C(Nc1ccccc1)N1CCn2nnc(COc3cccnc3)c2C1", "LdMetRS": 16.74}
{"smiles": "O=C(O)C(F)(F)F.[H][C@@]12CCCO[C@]1([H])[C@H](OCc1cccnc1)CN2S(=O)(=O)N(C)C", "Mtb heat-shock": -21.21}
{"smiles": "CC(NC(=O)N1CCSC(C)(C)C1)c1noc(-c2ccccc2)n1", "stereo": "stereo not drawn", "LdMetRS": 13.02, "Mtb heat-shock": 3.242}
{"smiles": "CCC[C@H]1CN(Cc2ccc3c(c2)OCCO3)C[C@@H]1NC(=O)COC", "LdMetRS": 10.7, "Mtb heat-shock": 14.61}
{"smiles": "Cc1ccc(CN(C)C(=O)NCC(C)(C)S(C)(=O)=O)s1", "LdMetRS": 1.804, "Mtb heat-shock": -10.94}
{"smiles": "COc1ncccc1CNC(=O)c1cccc(C)n1", "LdMetRS": 12.88, "Mtb heat-shock": 30.59}
{"smiles": "CC(C)CN1CCN(Cc2nc3c(s2)CCCC3)[C@H]2CS(=O)(=O)C[C@H]21", "LdMetRS": 13.17}
{"smiles": "O=C(O)C(F)(F)F.[H][C@@]12CCN(Cc3c(C)noc3C)[C@]1([H])CC[C@H](C(=O)N1CCCC1)O2", "Mtb heat-shock": -31.47}
{"smiles": "CCC(C(=O)NCc1csc(-c2ncccn2)n1)n1cccn1", "stereo": "stereo not drawn", "LdMetRS": 9.415, "Mtb heat-shock": 0.8172}
{"smiles": "COc1cccc(CCC(=O)N2CCCC(c3nncn3C)C2)c1", "stereo": "stereo not drawn", "LdMetRS": 14.42, "Mtb heat-shock": -4.579}
{"smiles": "CC(C)(C)SCCNC(=O)[C@@]12CNC[C@@H]1CN(S(C)(=O)=O)C2", "LdMetRS": 6.933}

2 of the entries, repeated:

SMILES	LdMetRS	Mtb heat-shock
CC(NC(=O)N1CCSC(C)(C)C1)c1noc(-c2ccccc2)n1 (stereo not drawn)	13.02	3.242
COc1cccc(CCC(=O)N2CCCC(c3nncn3C)C2)c1 (stereo not drawn)	14.42	-4.579